Earlier results, collected in patent EP2186515A1, “PHARMACEUTICAL COMPOSITION COMPRISING THE COMBINATION OF AN ANTI-DEPRESSIVE AGENT AND AN ANSIOLYTIC AGENT FOR CONTROL AND TREATMENT OF DEPRESSIVE DISORDERS” (World Trade Import-Export, WTIE A.G., priority 2007, dated 2009).

System: plasma proteins
Settings: cited from earlier work

In the case of `CN[C@H]1CC[C@@H](c2ccc(Cl)c(Cl)c2)c2ccccc21` [Sertraline], the “attached to plasma proteins” value is listed as 99%.
